The values below come from patent US20140093973A1.

The target in assay [1] is soluble HLA-B*1501 (human). The experiment in a line: FP screen.
The target in assay [2] is soluble HLA-A*2601 (human). The experiment in a line: FP screen of 53 sHLA.
The target in assay [3] is soluble HLA-A*1102 (sHLA-A*1102) (human). The experiment in a line: FP screen of 53 sHLA.
The target is the same in assay [4]. The experiment in a line: FP screen of 53 sHLA with FITC-peptide.
The target in assay [5] is soluble HLA-A*6801 (sHLA-A*6801) (human). Briefly: FP screen of 53 sHLA with FITC-peptide.
Assay [6] concerns the target soluble HLA-A*4301 (sHLA-A*4301) (human). The experiment in a line: FP screen of 53 sHLA.
Assay [7] shares this target. Briefly: FP screen of 53 sHLA with FITC-peptide.

No constants are given. Whether binding was seen depends on the method and setting. For some assays here: Binding calls can cover weak binding; strength is not graded here.

B1: …, FITC-labeled A24-like peptide (peptide)
peptide: KYPENKFLL
modifications: FITC-labeled (position not given)
On to B1, for which, in assay [1], the binding result is on record as “no binding (tested: 100 ug/ml sHLA)”.

B2: …, FITC-labeled A1-like peptide (peptide)
peptide: YLEPAKAKY
modifications: FITC-labeled (position not given)
Regarding B2, in assay [2], the binding entry was “binds”.

B3: …, FITC-labeled A3-like peptide (peptide)
peptide: KVFPKALINK
modifications: FITC-labeled (position not given)
On to B3, for which the binding result in assay [3], in assay [4] and in assay [5] was “binds” throughout.

B4: …, FITC-labeled A1-like peptide (peptide)
peptide: YTDGVPLKY
modifications: FITC-labeled (position not given)
For the molecule B4, the binding result in assay [6], in assay [4] and in assay [7] was “binds” each time.

B5: …, FITC-labeled A3-like peptide (peptide)
peptide: SLFRAVIKK
modifications: FITC-labeled (position not given)
B5: the binding result in assay [3], in assay [4] and in assay [5] was “binds” throughout.
